The whole screen tested about 6,900 compounds, of which fewer than 10 were called active. Calls follow the shape of the dose curve; as a rule, active = well fitted curve in the direction sought with a large enough effect; inconclusive = small, poorly fitted or top-dose-only effect, or another doubt; inactive = no such curve, though single readings can be large or run the other way. This is one part of the list.
Each compound was assayed against Metallo-beta-lactamase type 2 (Klebsiella pneumoniae) (UniProt C7C422) (assay: qHTS to identify inhibitors of the New Delhi Metallo-beta-lactamase (NDM): primary screen against the NCATS Gemini Collection). Details: NDM-1 enzyme, meropenem hydrolysis, absorbance 300 nm; at 38.4 µM (top of the series) unless noted.
Source text: Assay Submitter (PI): James Inglese Ph.D., Patricia Dranchak Ph.D., Mahesh Aitha Ph.D. Assay Development and Screening Technology Laboratory (ADST) National Center for Advancing Translational Sciences (NCATS), Rockville, MD National Institute of Health (NIH), Bethesda, Maryland The metallo-beta-lactamases (MBL) are a main antibiotic resistance mechanism evolved by bacteria. There is an urgent clinical need for MBL inhibitors to mitigate this growing threat. To support a machine-based learning study, qHTS has been used to experimentally test inhibitors identified by prediction tools.
PROTOCOL TABLE (as described by Inglese et al., 2007) SEQUENCE No. (e.g., 1, 2, 3, etc.); […] (e.g., enzyme, Incubation, Reagent, etc.); VALUE; DESCRIPTION 1; NDM-1; 4 uL of 3 nM enzyme [2 nM final] in 50 mM HEPES (pH 7.0), 1 uM […], 0.01% Tween20; Use BioRaptr to dispense into Aurora black, clear bottom low base 1536-well plates 2; Compounds; 23 nL; Use Pin Tool (Wako) to transfer DMSO control and library compounds in DMSO 3; Incubate; >30 min 4; Reagent; 2 uL of 150 uM meropenem [50 uM final] 5; Incubate; 30 min. 6; Detector; Absorbance at 300 nm (bandwidth = 5 nm, 25 flashes/well) on Tecan Infinity NOTES (numbers refer to sequence above) 1; Column 1 of each plate received assay buffer without enzyme and columns 2-48 received enzyme for a final assay concentration of 2 nM. 2; Control plate contained DMSO in columns 1, 2, 3, and 4. 3; Compound interaction with enzyme. 4; Meropenem substrate was prepared in the same assay buffer as step 1 for a final assay concentration of 50 uM and added to all wells across the assay plates. 5; Substrate interaction with enzyme, plateau phase of kinetics. 6; Default reader settings were applied for absorbance read at 300 nm, bandwidth = 5 nm, 25 flashes/well. References: Inglese J, Shamu CE, Guy RK. 2007. Reporting data from high-throughput screening of small-molecule libraries. Nat Chem Biol. doi:10.1038/nchembio0807-438 Yasgar A, Shinn P, Jadhav A, Auld D, Michael S, Zheng W, Austin CP, Inglese J, Simeonov A. 2008. Compound Management for Quantitative High-Throughput Screening. J Lab Autom 13:79 - 89. doi:10.1016/j.jala.2007.12.004
For activity % (negative = inhibition) in this document: % of control where 0% means no effect.

Amino acid sequences for entries named in this document (tags omitted). A change or cut given only in a name is not applied to a line headed by its entry.
UniProt C7C422: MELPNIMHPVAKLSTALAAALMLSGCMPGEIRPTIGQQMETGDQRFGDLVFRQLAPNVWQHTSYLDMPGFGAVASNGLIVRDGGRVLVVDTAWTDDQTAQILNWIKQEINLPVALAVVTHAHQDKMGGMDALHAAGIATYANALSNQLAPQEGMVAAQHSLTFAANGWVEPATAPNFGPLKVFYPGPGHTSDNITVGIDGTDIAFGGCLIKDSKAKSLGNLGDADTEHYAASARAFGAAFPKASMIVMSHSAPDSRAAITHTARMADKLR

Structure (SMILES) | activity % (negative = inhibition)
CC(=O)N1CCCC1c1nc(C2CN(Cc3cc(F)c(F)cc3F)C2)no1 (centres undefined) | inactive: 4.71%
Cc1ccc(S(=O)(=O)N2CCC3(CC2)SCC(=O)N3Cc2ccco2)cc1 | inactive: 22.3%
COc1ccc(-c2nc(C)nc3c2CCN([S+](=O)([O-])c2cccc(OC)c2)CC3)cc1 | inactive: 14%
O=C(c1ccoc1)N1CC[C@@H](c2ccc3ccccc3c2)[C@H](O)C1 | inactive: -5.88%
CC(=O)Oc1c(-c2ccc(NC(=O)c3ccco3)cc2)c(-c2cccc(F)c2)nn1-c1ccc(C)cc1 | inactive: 19.1%
Cc1cccc(OCCc2noc(C3CCN(C(=O)NC4CCCCC4)C3)n2)c1 (centres undefined) | inactive: 12.9%
CCCS(=O)(=O)N1CCC(N2C(=O)[C@H](OCCOC)[C@@H]2c2ccncc2)CC1 | inactive: -2.75%
O=C1CCC2(CCN1)CCN(S(=O)(=O)c1cccnc1)CC2 | inactive: -0.426%
Cc1cc(C)cc(Nc2nc(C)cc(=O)n2CC(=O)Nc2cccc(C(F)(F)F)c2)c1 | inactive: 9.31%
COC(C)c1nc(C2CCOCC2)nn1Cc1ccc2c(c1)OCO2 (centres undefined) | inactive: 1.02%
COc1ccc(-c2nc3c(c(=O)[nH]2)CCN(C(=O)c2ccccc2)C3)cc1 | inactive: 14%
Cc1noc(C)c1[S+](=O)([O-])N1CCn2c(nn(-c3ccc(C(F)(F)F)cc3)c2=O)C1 | inactive: 8.21%
Cn1nc(C(=O)N2CCC3(CC2)CC(Cc2nc(C4CC4)no2)CCO3)c2ccccc21 (centres undefined) | inactive: 5.94%
COCC(=O)N1CCN(C(C)=O)C[C@@H]1C(=O)N[C@H](C)C(=O)OC | inactive: 3.23% [at 57.5 µM]
COc1ccc(-c2ccc3ccccc3n2)c(OC)c1OC | inactive: 7.47%
Cn1cncc1CN1CCC2(CCN(C3CCOCC3)CC2)C(CO)C1 (centres undefined) | inactive: 0.85%
O=C1CCCCCN1C1CCN(Cc2ccsc2)CC1 | inactive: 0.058% [at 57.5 µM]
Cc1nc(C)c(C(=O)N2CCCC(c3nn(C)c(=O)n3C(C)C)C2)s1 (centres undefined) | inactive: -0.353%
CCCS(=O)(=O)N1Cc2c(ncn2Cc2ccc(Cl)cc2)C[C@H]1C(=O)OC | inactive: 11.9% [at 57.5 µM]
O=C1CC2CCN([S+](=O)([O-])c3cccs3)CC2CCN1 (centres undefined) | inactive: 57.9%
Cc1ccc(CCC(=O)N2C[C@@H](CN3CCOCC3)[C@@H](CO)C2)cc1 | inactive: 16.5%
CCN1CCN(C(=O)c2ccc3nc(-c4cccc(C)n4)oc3c2)CC1 | inactive: -1.78% [at 57.5 µM]
COCc1cc([C@H]2N[C@@](C)(C(=O)OC)[C@H]3C(=O)N(C)C(=O)[C@@H]23)ccc1OC | inactive: 3.94%
CCn1cnnc1-c1nn(C)c2c1CN(C(=O)CCCc1nc3ccccc3s1)CC2 | inactive: 1.88%
COc1ccc(N2C(=O)[C@@H]3Cc4nc[nH]c4CN3C2=O)cc1 | inactive: -0.871% [at 57.5 µM]
O=C(c1cc(F)ccc1F)N1CCC(Oc2cccnc2)C1 (centres undefined) | inactive: 20.7%
CC(=O)Nc1ccc(-c2c(C(C)C)nn(-c3cccc(F)c3)c2OC(C)=O)cc1 | inactive: 7.68%

Structure (SMILES) | activity % (negative = inhibition)
Cc1cccc(-c2nc3cc(C(=O)NCc4ccc(F)cc4)ccc3o2)n1 | inactive: 10% [at 57.5 µM]
O=C(c1ccco1)N1Cc2[nH]cnc2C[C@H]1c1nc(-c2ccncc2)no1 | inactive: 21.4% [at 57.5 µM]
N#Cc1ccc(CN2CCCC3(Cc4ccccc4NC3=O)C2)cc1 (centres undefined) | inactive: -1.1%
Cc1noc2c(N3CCOCC3)cc(-c3cccnc3)nc12 | inactive
O=C1NCCCCCCN(C(=O)c2ccccn2)[C@H]2CCCC[C@@H]12 | inactive: 7.82%
COc1cccc(COC2CN(CC(C)C)C(=O)CN(C(=O)c3csc(C(C)=O)c3)C2)c1 (centres undefined) | inactive: 50.1%
CCCCCC(=O)N[C@H]1C[C@@H](Cc2cc(CN3CCOCC3)on2)C1(C)C | inactive: -1.22% [at 57.5 µM]
c1ccc(-c2ccnc3nc(CCC4CCCC4)nn23)nc1 | inactive: 3.24%
CCOc1cc(=O)n2c(c1C(=O)NC1CCCC1)CCCCC2 | inactive: 9.27%
Cc1cc(C)n(Cc2cc(C(=O)N(C)C(C)c3ccon3)n[nH]2)n1 (centres undefined) | inactive: -4.62%
COCCc1noc(-c2ccc(N(C)Cc3ncc(C)[nH]3)nc2)n1 | inactive: 1.88%
COc1ccc(NC(=O)c2ccc3c(c2)n(C)c(=O)c2ccnn23)cc1OC | inactive: 4.72%
Cc1nn(-c2ccccc2)c2c1C(C)N(C1CCN([S+](=O)([O-])c3c(C)noc3C)C1)C2=O (centres undefined) | inactive: 7.76%
COC[C@@H]1CNC[C@H]1c1ccccn1 | inactive: 2.02%
CC(C)(C)c1cnc([C@@H]2COCCN2C2CCCCC2)[nH]1 | inactive: 15% [at 77.1 µM]
O=[S+]1([O-])NC2(CCCN(Cc3c(F)cccc3Cl)C2)COc2ccccc21 (centres undefined) | inactive: -0.277%
COc1ccc2c(c1)OCC(C(=O)NCc1noc(-c3ccco3)n1)C2 (centres undefined) | inactive: -1.85%
COc1cccc(C(=O)NC2CCCN(c3ccc4nnc(C5CC5)n4n3)C2)c1 (centres undefined) | inactive: 91.3%
O=C1CC2(CCN(C(=O)C3CCCN3C(=O)c3ccc(Cl)nc3)CC2)Oc2ccccc2N1 (centres undefined) | inactive: 5.59%
Cc1ccc(-c2nc(C3CC(=O)N(c4ccc(F)c(Cl)c4)C3)no2)cc1C (centres undefined) | inactive: -1.66%
C=CCCOC(=O)N1C[C@@H](CO)[C@@H]2Oc3ccc(Cl)cc3[C@@H]21 | inactive: 9.79%
CCC1(C(=O)NCCc2ccccc2)CCCCC(=O)N1 (centres undefined) | inactive: 2.31%
O=C(C1CCCC1)N1CCC(Oc2cccnc2)C1 (centres undefined) | inactive: 8.92%
COC(=O)[C@H](NC(=O)[C@@H]1C[C@H](NC(=O)Nc2ccc(OC)cc2)CN1C(=O)CSC)C(C)C | inactive: -3.63%
COC[C@@H]1CN(Cc2cn[nH]c2-c2ccccc2)C[C@H]1c1nc(C)no1 | inactive: -5.09%
CC(C)(C)c1cc(C[C@@H]2C[C@H](NS(C)(=O)=O)C2(C)C)no1 | inactive: 16.2% [at 57.5 µM]
COc1cccc(C(=O)N2CCCC(COc3ccccc3C(=O)N3CCOCC3)C2)c1 (centres undefined) | inactive: 0.198%

Three neighbouring records out of the list so far, for reference:
Structure (SMILES) | activity % (negative = inhibition)
Cc1cc(C)n(Cc2cc(C(=O)N(C)C(C)c3ccon3)n[nH]2)n1 (centres undefined) | inactive: -4.62%
COCCc1noc(-c2ccc(N(C)Cc3ncc(C)[nH]3)nc2)n1 | inactive: 1.88%
COc1ccc(NC(=O)c2ccc3c(c2)n(C)c(=O)c2ccnn23)cc1OC | inactive: 4.72%
